These results are taken from patent publication US20170080075A1.

Chains of the proteins cited; added tags and fusions are not shown. Lines headed by an entry give the natural chain unless they say otherwise; changes in a name come on top.
UniProt Q7DDB6: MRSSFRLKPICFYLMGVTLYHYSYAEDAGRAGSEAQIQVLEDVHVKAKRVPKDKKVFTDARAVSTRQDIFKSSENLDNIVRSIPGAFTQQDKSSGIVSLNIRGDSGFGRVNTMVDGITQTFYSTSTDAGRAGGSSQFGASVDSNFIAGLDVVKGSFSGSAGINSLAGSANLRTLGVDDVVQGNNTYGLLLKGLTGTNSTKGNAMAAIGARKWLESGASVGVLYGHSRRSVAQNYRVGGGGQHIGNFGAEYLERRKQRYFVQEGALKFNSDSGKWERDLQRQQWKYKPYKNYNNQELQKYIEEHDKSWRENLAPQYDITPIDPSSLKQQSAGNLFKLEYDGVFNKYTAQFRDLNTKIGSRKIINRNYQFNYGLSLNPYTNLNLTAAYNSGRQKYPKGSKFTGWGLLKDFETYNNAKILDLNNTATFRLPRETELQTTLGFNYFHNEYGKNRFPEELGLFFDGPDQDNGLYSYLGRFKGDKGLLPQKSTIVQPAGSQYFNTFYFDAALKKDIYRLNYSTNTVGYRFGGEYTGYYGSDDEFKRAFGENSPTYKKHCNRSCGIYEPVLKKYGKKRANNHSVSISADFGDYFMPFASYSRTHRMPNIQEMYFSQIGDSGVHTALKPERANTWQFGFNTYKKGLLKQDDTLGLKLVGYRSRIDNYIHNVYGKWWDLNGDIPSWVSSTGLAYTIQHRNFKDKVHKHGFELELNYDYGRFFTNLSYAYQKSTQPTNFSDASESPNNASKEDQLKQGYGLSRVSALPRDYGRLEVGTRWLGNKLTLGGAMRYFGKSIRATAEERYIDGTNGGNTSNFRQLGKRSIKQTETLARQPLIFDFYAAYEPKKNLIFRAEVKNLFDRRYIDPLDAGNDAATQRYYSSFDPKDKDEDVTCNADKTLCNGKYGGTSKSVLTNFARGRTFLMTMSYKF

These are yes or no findings as the source states them, for the method shown. Some results given as binding are weak or reduced against the parent protein; the word gives no strength.

For assay [1], the target named is TdfH (Neisseria meningitidis) (UniProt Q7DDB6). Kind of assay: whole bacteria over-expressing TdfH incubated with calprotectin, washed, lysed; Western blot with anti-calprotectin; no metal added.
Assay [2] has the same target. Kind of assay: whole bacteria over-expressing TdfH incubated with calprotectin, with zinc or manganese added to the binding step; Western blot with anti-calprotectin.

B1: calprotectin (ligand)
chain 1: MLTELEKALNSIIDVYHKYSLIKGNFHAVYRDDLKKLLETECPQYIRKKGADVWFKELDINTDGAVNFQEFLILVIKMGVAAHKKSHEESHKE
chain 2: MTCKMSQLERNIETIINTFHQYSVKLGHPDTLNQGEFKELVRKDLQNFLKKENKNEKVIEHIMEDLDTNADKQLSFEEFIMLMARLTWASHEKMHEGDEGPGHHHKPGLGEGTP
In the case of B1, the binding result in assay [1] and in assay [2] was “binds” in each case.
